Experimental data: PubChem BioAssay AID1259254 (NCATS, 2017)
Screen: 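Gene knock-downs that lead to re-replication, shown by excess G2 DNA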 (primary screen). System: human HCT116 colorectal cancer cells. Reagents: single siRNA against human genes. Time to read-out: 3 days. Measurement: 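Nuclei stained with Hoechst and imaged; cell-cycle phase assigned by DNA content; G2 share scaled per plate, non-targeting siRNA 0%, GMNN siRNA 100%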. Scale: G2 robust z-score: higher = more G2 cells, more excess DNA replication. Call rule: 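Active siRNAs have a G2 robust z of 5 or more median absolute deviations over the median, which in these data means about 38% or higher of GMNN control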.
This is one part, drawn at random, of about 59,000 deposited reagents. In the full data, about 1,550 (2.6%) are marked active. 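G2 share is only a proxy for re-replication; each gene was hit by three separate siRNAs, and active genes were retested.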 Reagents against one gene are numbered here. Not all columns of the deposit are shown. The record does not give: the amount of reagent.

G2 robust z-score, by target gene and reagent
OR8J3 (olfactory receptor family 8 subfamily J member 3): #1 2.3 inactive; #2 1.69 inactive; #3 -1.06 inactive
GLB1L2 (galactosidase beta 1 like 2): #1 0.375 inactive; #2 0.531 inactive; #3 0.0943 inactive
ITFG2-AS1 (ITFG2 antisense RNA 1): #1 0.889 inactive; #2 -0.383 inactive; #3 -0.935 inactive
TAF12 (TATA-box binding protein associated factor 12): #1 2.01 inactive; #2 -0.437 inactive; #3 -0.103 inactive
HOXA11 (homeobox A11): #1 -0.872 inactive; #2 -1.03 inactive; #3 0.108 inactive
MIPOL1 (mirror-image polydactyly 1): #1 0.136 inactive; #2 2.23 inactive; #3 3.28 inactive
ZEB1 (zinc finger E-box binding homeobox 1): #1 -0.856 inactive; #2 0.275 inactive; #3 -0.599 inactive
SRPX2 (sushi repeat containing protein X-linked 2): #1 -0.347 inactive; #2 0.064 inactive; #3 -0.989 inactive
CLPX: #1 1.12 inactive; #2 -0.794 inactive; #3 -0.376 inactive
EDA (ectodysplasin A): #1 -0.148 inactive; #2 5.65 active; #3 -0.303 inactive
CHST9 (carbohydrate sulfotransferase 9): #1 0.212 inactive; #2 1.33 inactive; #3 -0.782 inactive
TTK (TTK protein kinase): #1 10.5 active; #2 2.2 inactive; #3 4.09 inactive
ST8SIA5 (ST8 alpha-N-acetyl-neuraminide alpha-2,8-sialyltransferase 5): #1 1.4 inactive; #2 0.772 inactive; #3 1.22 inactive
RPL22P11 (ribosomal protein L22 pseudogene 11): #1 0.929 inactive; #2 0.071 inactive; #3 -0.108 inactive
PRKCE (protein kinase C epsilon): #1 0.957 inactive; #2 -1.12 inactive; #3 -0.581 inactive
CEP89 (centrosomal protein 89): #1 0.521 inactive; #2 1.25 inactive; #3 0.667 inactive

Targets above whose target name starts with Z or z (3):
G2 robust z-score, by target gene and reagent
ZEB1 (zinc finger E-box binding homeobox 1): #1 -0.856 inactive; #2 0.275 inactive; #3 -0.599 inactive

Additional records follow:
G2 robust z-score, by target gene and reagent
SPATA4 (spermatogenesis associated 4): #1 3.13 inactive; #2 4 inactive; #3 -0.341 inactive
PXT1 (peroxisomal testis enriched protein 1): #1 1.68 inactive; #2 -0.757 inactive; #3 4.05 inactive
ELAVL3 (ELAV like RNA binding protein 3): #1 -0.591 inactive; #2 -0.766 inactive; #3 -0.757 inactive
ZNF157 (zinc finger protein 157): #1 -0.0548 inactive; #2 1.17 inactive; #3 0.237 inactive
RASGRP1 (RAS guanyl releasing protein 1): #1 -0.744 inactive; #2 0.433 inactive; #3 -0.291 inactive
IGHV4OR15-8 (immunoglobulin heavy variable 4/OR15-8 (non-functional)): #1 -0.242 inactive; #2 2.32 inactive; #3 -0.732 inactive
TRMT10A (tRNA methyltransferase 10A): #1 -0.494 inactive; #2 -0.296 inactive; #3 -1.15 inactive
ATXN1L (ataxin 1 like): #1 -1.41 inactive; #2 -0.149 inactive; #3 1.34 inactive
FAM186A (family with sequence similarity 186 member A): #1 -0.436 inactive; #2 -1.12 inactive; #3 -0.615 inactive
LINC02610 (long independently transcribed non-coding RNA 2610): #1 0.508 inactive; #2 -0.865 inactive; #3 4.24 inactive
CHMP5 (charged multivesicular body protein 5): #1 0.141 inactive; #2 0.928 inactive; #3 4.59 inactive
TMEM240 (transmembrane protein 240): #1 1.57 inactive; #2 1.06 inactive; #3 0.722 inactive
TBC1D13 (TBC1 domain family member 13): #1 -0.595 inactive; #2 -0.817 inactive; #3 2.36 inactive
